# Reference: PubChem BioAssay AID588497 (NMMLSC, 2011)
# Among all 360,000 compounds or so, about 780 (0.22%) were called active. Inconclusive means that the source gave no clear call. Such entries were picked first, then a sample of the others. Cut-off read from the data, not from the text of the source: active = inhibition above about 35% (passing the limit was not always enough); inconclusive = no clear call, values can overlap the other calls.
# System: Botulinum neurotoxin type F light chain protease (Clostridium botulinum)
# Test: BoNT/F light chain protease inhibitors, primary screen, biochemical, flow cytometry, MLPCN library (AID 588497); note: plate controls were buffer without enzyme for full effect and enzyme alone for no effect
# Conditions: Multiplex microsphere protease cleavage assay, at 10 µM, stronger effect = higher value
row,SMILES,inhibition
1,CCN1N=C(c2ccccc2)CCC1=O,inconclusive: -3.4%
2,O=C(Nc1ccc([N+](=O)[O-])cc1)N1CCc2ccccc2C1,inconclusive: -9.1%
3,CS(=O)(=O)N(CC(=O)Nc1ccc(Br)cc1)C1CCCCC1,inconclusive: 4.3%
4,COc1cccc(CCC(=O)N(C)C2CCCN(Cc3ccccc3F)C2)c1 (configuration not stated),active: 36%
5,COc1ccc(N2C(=O)[C@@H]3[C@H](C2=O)[C@H]2C=CC=NN2[C@@H]3C(=O)Nc2ccc(Cl)cc2)cc1,inconclusive: 6%
6,Brc1ccc(C2=Nn3c(Cn4nnc5ccccc54)nnc3SC2)cc1,inconclusive: -27.4%
7,O=C(c1cccc(Cl)c1)N1CCCc2ccccc21,inconclusive: 1.8%
8,NS(=O)(=O)c1ccc(NC(=O)/C=C/c2ccc3c(c2)OCO3)cc1,inactive: -0.2%
9,COc1ccc2c(c1)c(C(=O)CN1CCc3ccccc3C1)c(C)n2C,inconclusive: -64.6%
10,C=CCc1c(C)nc(N2CCSCC2)[nH]c1=O,inconclusive: -46%
11,CCOC(=O)CN1C(=O)N[C@@H](c2ccccc2)[C@H](C(C)=O)[C@H]1C,inactive: 2.4%
12,O=S(=O)(/C=C/C=C/S(=O)(=O)c1ccccc1)c1ccccc1,inactive: -6.6%
13,CCOc1ccccc1NC(=O)CSc1nnc(CNC(=O)COc2ccc(Cl)cc2)o1,inconclusive: 6.5%
14,CSc1sc(C(=O)N(C)C)c2c1S(=O)(=O)N(C)c1ccccc1-2,inconclusive: -14.6%
15,O=C(O)c1ccc2c(c1)C(=O)N(c1ccc(Nc3ccccc3)cc1)C2=O,inactive: -1.7%
16,CC(NC(=O)c1ccccc1)C(=O)NC1CCCc2ccccc21 (configuration not stated),inconclusive: -1%
17,CCOC(=O)N1CCC(NC(=O)C2CCCN2C(=O)OCc2ccccc2)CC1 (configuration not stated),inactive: -4.3%
18,COc1cc(S(=O)(=O)N2CCN(C(=O)c3cccs3)CC2)ccc1NC(C)=O,inactive: -2%
19,Cc1cc(/C=C2\C(=N)N3N=CSC3=NC2=O)c(C)n1Cc1ccccc1,inconclusive: -91.1%
20,Cc1ccc(N2CCN(S(=O)(=O)c3ccc(F)c(C)c3)CC2)c(C)c1,inconclusive: -13%
21,O=C1C2ON(c3ccccc3)C(c3ccncc3)C2C(=O)N1c1ccc(N2CCOCC2)cc1 (configuration not stated),inactive: -0.7%
22,Cc1nc2scc(C)n2c(=O)c1S(=O)(=O)NC(C)c1ccccc1 (configuration not stated),inactive: 10.3%
23,O=C(CCCc1ccccc1)NCCc1ccc(F)cc1,inconclusive: 6.1%
24,CC(=O)OCC1OC(n2cc(F)c(=O)[nH]c2=O)C(OC(C)=O)C1OC(C)=O (configuration not stated),inconclusive: 13%

row,SMILES,inhibition
1,Cc1cccc(-c2nc(C#N)c(NCc3ccco3)o2)c1,inconclusive: 4%
2,Cc1c(N=Cc2c(O)n(CCc3ccccc3)c(=O)[nH]c2=O)c(=O)n(-c2ccccc2)n1C,inactive: 0.1%
3,COc1cccc(C(=O)NCCS(=O)(=O)NCc2cccs2)c1,inconclusive: 4.5%
4,CC(=O)N1N=C(c2ccc(C)c([N+](=O)[O-])c2)OC1(C)C,inconclusive: -118%
5,CCOC(=O)NN1C(=O)c2ccccc2NC1c1ccccc1F (configuration not stated),inactive: -4.3%
6,COc1ccccc1C1Nc2ccccc2NC2=C1C(=O)CC(C)(C)C2 (configuration not stated),active: 36.6%
7,O=c1[nH]c(Nc2ccccc2Cl)cc2ccccc12,inactive: -1.5%
8,CCOc1cc(/C=C2\C(=N)N3N=C(CC)SC3=NC2=O)ccc1OCCOc1ccc(NC(C)=O)cc1,inconclusive: -47.1%
9,COc1ccc(/C=N/NC(=O)c2ccn[nH]2)cc1CN1CCOCC1,inconclusive: -93.9%
10,CC(OC(=O)c1n[nH]c2ccccc12)C(=O)NC1CCCCC1C (configuration not stated),inactive: 0.8%
11,COc1ccc(Cl)cc1NC(=O)N1CCN(c2ccccc2OC)CC1,inconclusive: 55.3%
12,CCN(CC)c1ccc(C=Nc2ccc(C)cc2C)c(O)c1,inactive: 6.6%
13,O=C(CCC(=O)N(CC(=O)NC1CCCC1)C1CCCC1)Nc1ccccn1,inconclusive: -18.4%
14,CC1CN(C(=O)CCCN2C(=O)c3ccccc3C2=O)CC(C)O1 (configuration not stated),inconclusive: -14.3%
15,CC1(C)OC(=O)C2=C(C[C@@H](CCc3ccccc3)O[C@@H]2c2ccc(Cl)cc2)O1,inactive: -2.9%
16,CCOC(=O)C1=C(C)NC(=O)NC1c1cccc(OC)c1OCc1ccccc1Cl (configuration not stated),inactive: -2.4%
17,O=C(CCCN1C(=O)c2ccccc2C1=O)Nc1ccccc1,inconclusive: 43.8%
18,Oc1ccc(Nc2nc(-c3ccccc3O)nc3ccccc23)cc1,inconclusive: -64.4%
19,Cc1n[nH]c(=S)n1/N=C/c1c(O)ccc2ccccc12,inconclusive: 28.9%
20,Cc1cc(C(=O)Nc2ccc(F)cc2C)n(-c2ccccc2)n1,inactive: -0.2%
21,Cc1cccn2c(=O)c3cc(C(=O)NC4CCCC4)c(=N)n(C4CCCCC4)c3nc12,inactive: 10%
22,O=C(c1cccc(F)c1F)N1CCCc2ccccc21,inconclusive: -22.8%
23,CCCCCc1nc2c(c(=O)c3ccccc3n2C)c(=O)n1Cc1ccc(OC)cc1,inconclusive: 129%

# In a second layout: 11 of the compounds above.
row | SMILES | inhibition
18 | COc1cc(S(=O)(=O)N2CCN(C(=O)c3cccs3)CC2)ccc1NC(C)=O | inactive: -2%
19 | Cc1cc(/C=C2\C(=N)N3N=CSC3=NC2=O)c(C)n1Cc1ccccc1 | inconclusive: -91.1%
20 | Cc1ccc(N2CCN(S(=O)(=O)c3ccc(F)c(C)c3)CC2)c(C)c1 | inconclusive: -13%
21 | O=C1C2ON(c3ccccc3)C(c3ccncc3)C2C(=O)N1c1ccc(N2CCOCC2)cc1 (configuration not stated) | inactive: -0.7%
22 | Cc1nc2scc(C)n2c(=O)c1S(=O)(=O)NC(C)c1ccccc1 (configuration not stated) | inactive: 10.3%
23 | O=C(CCCc1ccccc1)NCCc1ccc(F)cc1 | inconclusive: 6.1%
24 | CC(=O)OCC1OC(n2cc(F)c(=O)[nH]c2=O)C(OC(C)=O)C1OC(C)=O (configuration not stated) | inconclusive: 13%
1 | Cc1cccc(-c2nc(C#N)c(NCc3ccco3)o2)c1 | inconclusive: 4%
2 | Cc1c(N=Cc2c(O)n(CCc3ccccc3)c(=O)[nH]c2=O)c(=O)n(-c2ccccc2)n1C | inactive: 0.1%
3 | COc1cccc(C(=O)NCCS(=O)(=O)NCc2cccs2)c1 | inconclusive: 4.5%
4 | CC(=O)N1N=C(c2ccc(C)c([N+](=O)[O-])c2)OC1(C)C | inconclusive: -118%
